Reference: the supplement of paper PMC6411743
± gives the standard deviation of the averaged measurements. Only a part is listed here, and it is no random draw.

What was measured:
Assay in all cases: NP40-soluble protein abundance relative to vehicle (solubility fold change) (ratio); higher = more soluble protein in presence of ATP
ATP11B = target: T1, ATP11B (UniProt Q9Y2G3)
T1 sequence (whole entry): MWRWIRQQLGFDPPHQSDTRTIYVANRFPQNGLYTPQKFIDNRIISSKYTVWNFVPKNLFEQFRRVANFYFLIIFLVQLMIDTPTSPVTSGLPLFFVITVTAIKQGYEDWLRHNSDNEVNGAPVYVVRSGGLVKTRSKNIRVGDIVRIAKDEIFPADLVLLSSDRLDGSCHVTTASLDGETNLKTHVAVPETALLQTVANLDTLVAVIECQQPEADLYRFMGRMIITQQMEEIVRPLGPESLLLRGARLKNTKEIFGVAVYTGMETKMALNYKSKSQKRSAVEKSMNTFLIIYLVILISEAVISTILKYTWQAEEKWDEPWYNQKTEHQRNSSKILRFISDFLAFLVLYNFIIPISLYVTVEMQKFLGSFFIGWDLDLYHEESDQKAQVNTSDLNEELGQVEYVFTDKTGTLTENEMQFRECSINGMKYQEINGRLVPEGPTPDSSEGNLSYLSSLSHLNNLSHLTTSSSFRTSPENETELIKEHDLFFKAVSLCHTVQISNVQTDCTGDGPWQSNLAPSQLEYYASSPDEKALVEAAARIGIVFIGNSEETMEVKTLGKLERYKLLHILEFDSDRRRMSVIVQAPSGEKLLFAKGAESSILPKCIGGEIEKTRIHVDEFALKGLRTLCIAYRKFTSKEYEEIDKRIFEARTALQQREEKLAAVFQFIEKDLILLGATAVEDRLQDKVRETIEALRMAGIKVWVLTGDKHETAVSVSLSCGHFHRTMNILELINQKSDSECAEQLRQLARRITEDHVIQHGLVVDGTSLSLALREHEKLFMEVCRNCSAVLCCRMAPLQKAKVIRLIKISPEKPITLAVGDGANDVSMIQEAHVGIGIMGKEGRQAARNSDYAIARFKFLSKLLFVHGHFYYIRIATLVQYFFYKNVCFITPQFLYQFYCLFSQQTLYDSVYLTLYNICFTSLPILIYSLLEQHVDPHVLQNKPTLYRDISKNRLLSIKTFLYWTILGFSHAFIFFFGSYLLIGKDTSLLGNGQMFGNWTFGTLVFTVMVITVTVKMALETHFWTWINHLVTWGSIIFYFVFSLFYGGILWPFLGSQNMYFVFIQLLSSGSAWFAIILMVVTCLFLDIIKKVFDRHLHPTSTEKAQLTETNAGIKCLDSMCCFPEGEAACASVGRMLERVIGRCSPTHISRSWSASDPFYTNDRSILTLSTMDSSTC
How it was run: (§1)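 In three independent experiments, Jurkat crude lysate made by Dounce homogenisation was treated for 10 min at room temperature and then 3 min at 37 °C with eight concentrations ranging from 0.1 to 10 mM. It was then solubilised with 0.8% NP40 plus benzonase for 60 min at 4 °C and ultracentrifuged. The supernatant was TMT-labelled for LC-MS/MS, and each value is the fold change against the detergent-processed vehicle for the same replicate, using vsn-normalised intensities.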

DERA = target: T2, DERA (UniProt Q9Y315)
T2 sequence (whole entry): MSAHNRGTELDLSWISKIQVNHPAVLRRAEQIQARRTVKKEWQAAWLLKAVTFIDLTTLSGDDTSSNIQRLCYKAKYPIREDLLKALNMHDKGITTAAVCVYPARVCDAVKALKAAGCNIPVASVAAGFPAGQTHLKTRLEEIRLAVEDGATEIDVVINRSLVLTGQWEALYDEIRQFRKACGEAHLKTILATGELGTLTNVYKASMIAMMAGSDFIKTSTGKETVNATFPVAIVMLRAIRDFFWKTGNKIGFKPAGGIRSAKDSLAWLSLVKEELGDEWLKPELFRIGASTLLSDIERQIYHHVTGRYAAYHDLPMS
How it was run: as §1

FIS1 = target: T3, FIS1 (UniProt Q9Y3D6)
T3 sequence (whole entry): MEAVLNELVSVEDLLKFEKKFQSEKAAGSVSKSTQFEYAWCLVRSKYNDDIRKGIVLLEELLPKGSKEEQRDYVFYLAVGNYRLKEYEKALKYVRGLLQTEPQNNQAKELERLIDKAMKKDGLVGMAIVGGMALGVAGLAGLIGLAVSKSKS
How it was run: as §1

HYOU1 = target: T4, HYOU1 (UniProt Q9Y4L1); details: concentration: 1mM
T4 sequence (whole entry): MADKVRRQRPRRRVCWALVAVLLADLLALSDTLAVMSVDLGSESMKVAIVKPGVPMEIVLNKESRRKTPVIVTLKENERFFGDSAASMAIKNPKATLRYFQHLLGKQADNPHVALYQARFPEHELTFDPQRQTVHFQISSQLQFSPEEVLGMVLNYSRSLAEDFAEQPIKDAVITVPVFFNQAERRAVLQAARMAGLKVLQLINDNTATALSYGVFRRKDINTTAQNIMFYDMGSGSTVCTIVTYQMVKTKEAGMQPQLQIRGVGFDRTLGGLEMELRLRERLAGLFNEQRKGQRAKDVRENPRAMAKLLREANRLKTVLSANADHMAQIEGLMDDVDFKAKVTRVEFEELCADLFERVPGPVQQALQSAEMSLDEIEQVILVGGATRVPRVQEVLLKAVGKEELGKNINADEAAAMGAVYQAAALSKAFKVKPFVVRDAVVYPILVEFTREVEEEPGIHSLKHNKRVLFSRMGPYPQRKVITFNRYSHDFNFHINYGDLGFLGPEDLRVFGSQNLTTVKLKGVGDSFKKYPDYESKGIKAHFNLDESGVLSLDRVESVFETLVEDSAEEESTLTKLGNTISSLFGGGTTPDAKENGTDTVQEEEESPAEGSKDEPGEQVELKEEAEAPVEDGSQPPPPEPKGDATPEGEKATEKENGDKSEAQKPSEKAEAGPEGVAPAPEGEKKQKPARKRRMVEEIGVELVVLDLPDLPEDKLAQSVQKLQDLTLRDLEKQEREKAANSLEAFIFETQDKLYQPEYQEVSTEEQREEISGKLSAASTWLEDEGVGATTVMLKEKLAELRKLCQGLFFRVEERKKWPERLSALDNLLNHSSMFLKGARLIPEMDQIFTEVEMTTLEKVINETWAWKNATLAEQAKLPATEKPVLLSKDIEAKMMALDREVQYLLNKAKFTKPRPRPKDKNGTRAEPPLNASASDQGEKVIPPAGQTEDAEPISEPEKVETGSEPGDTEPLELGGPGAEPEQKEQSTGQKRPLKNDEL
How it was run: as §1

`Nc1ncnc2c1ncn2[C@@H]1O[C@H](COP(=O)(O)OP(=O)(O)OP(=O)(O)O)[C@@H](O)[C@H]1O` [adenosine triphosphate] gave an NP40-soluble protein abundance (ATP11B; concentration: 1mM) of 1.05 ± 0.11, an NP40-soluble protein abundance (ATP11B; concentration: 2mM) of 1.06 ± 0.11 and an NP40-soluble protein abundance (ATP11B; concentration: 4mM) of 1.08 ± 0.13. It also gave an NP40-soluble protein abundance (ATP11B; concentration: 6mM) of 0.995 ± 0.077, an NP40-soluble protein abundance (ATP11B; concentration: 8mM) of 1.07 ± 0.07 and an NP40-soluble protein abundance (ATP11B; concentration: 10mM) of 1.02 ± 0.073. For the same compound, the NP40-soluble protein abundance (DERA; concentration: 1mM) was 0.998 ± 0.018, the NP40-soluble protein abundance (DERA; concentration: 2mM) was 0.939 ± 0.033 and the NP40-soluble protein abundance (DERA; concentration: 4mM) was 0.941 ± 0.014. For the same compound, the NP40-soluble protein abundance (DERA; concentration: 6mM) was 0.914 ± 0.064, the NP40-soluble protein abundance (DERA; concentration: 8mM) was 0.945 ± 0.035 and the NP40-soluble protein abundance (DERA; concentration: 10mM) was 0.905 ± 0.018. It also gave an NP40-soluble protein abundance (FIS1; concentration: 1mM) of 1.04 ± 0.048, an NP40-soluble protein abundance (FIS1; concentration: 2mM) of 1.05 ± 0.076 and an NP40-soluble protein abundance (FIS1; concentration: 4mM) of 1.04 ± 0.1. The NP40-soluble protein abundance (FIS1; concentration: 6mM) was 0.96 ± 0.032, the NP40-soluble protein abundance (FIS1; concentration: 8mM) was 1 ± 0.023 and the NP40-soluble protein abundance (FIS1; concentration: 10mM) was 0.902 ± 0.1. The NP40-soluble protein abundance (HYOU1) was 0.937 ± 0.028.
